Source: publication PMC8169803
No constants are given. Whether binding was seen depends on the method and setting. Binding seen in cells or lysates may run through a third protein. Some binding calls cover weakened binding; strength is not graded here. For some assays here: Sequences can lack the tags named with a protein.

Chains of the proteins cited; added tags and fusions are not shown.
UniProt Q9BSM1: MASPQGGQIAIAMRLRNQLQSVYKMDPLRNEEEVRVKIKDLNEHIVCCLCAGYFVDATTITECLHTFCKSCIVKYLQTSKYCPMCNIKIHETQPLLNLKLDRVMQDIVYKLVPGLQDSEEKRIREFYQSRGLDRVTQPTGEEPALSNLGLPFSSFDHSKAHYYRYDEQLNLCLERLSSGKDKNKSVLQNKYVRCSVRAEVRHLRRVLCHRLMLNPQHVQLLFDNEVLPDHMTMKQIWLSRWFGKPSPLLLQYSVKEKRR
UniProt Q99496: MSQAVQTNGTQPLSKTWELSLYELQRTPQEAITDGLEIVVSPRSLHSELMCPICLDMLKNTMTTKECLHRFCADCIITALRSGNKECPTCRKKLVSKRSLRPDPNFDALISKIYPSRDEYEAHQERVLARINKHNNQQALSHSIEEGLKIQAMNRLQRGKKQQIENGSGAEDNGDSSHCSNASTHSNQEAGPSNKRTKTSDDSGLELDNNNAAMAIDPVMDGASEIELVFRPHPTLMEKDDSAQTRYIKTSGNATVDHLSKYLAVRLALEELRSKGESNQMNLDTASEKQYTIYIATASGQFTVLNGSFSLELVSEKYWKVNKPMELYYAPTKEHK
UniProt Q06587: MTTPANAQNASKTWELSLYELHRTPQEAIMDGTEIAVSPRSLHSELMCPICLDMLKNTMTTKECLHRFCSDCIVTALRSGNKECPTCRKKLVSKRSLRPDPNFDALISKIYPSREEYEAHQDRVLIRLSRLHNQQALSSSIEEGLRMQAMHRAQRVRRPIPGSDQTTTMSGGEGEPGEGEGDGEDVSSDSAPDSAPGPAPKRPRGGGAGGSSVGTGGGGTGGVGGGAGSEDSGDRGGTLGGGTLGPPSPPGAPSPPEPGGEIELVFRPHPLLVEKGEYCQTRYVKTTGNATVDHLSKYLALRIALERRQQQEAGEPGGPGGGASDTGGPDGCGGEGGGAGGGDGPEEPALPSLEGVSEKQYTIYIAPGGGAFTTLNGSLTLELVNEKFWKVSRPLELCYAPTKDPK
UniProt Q93009: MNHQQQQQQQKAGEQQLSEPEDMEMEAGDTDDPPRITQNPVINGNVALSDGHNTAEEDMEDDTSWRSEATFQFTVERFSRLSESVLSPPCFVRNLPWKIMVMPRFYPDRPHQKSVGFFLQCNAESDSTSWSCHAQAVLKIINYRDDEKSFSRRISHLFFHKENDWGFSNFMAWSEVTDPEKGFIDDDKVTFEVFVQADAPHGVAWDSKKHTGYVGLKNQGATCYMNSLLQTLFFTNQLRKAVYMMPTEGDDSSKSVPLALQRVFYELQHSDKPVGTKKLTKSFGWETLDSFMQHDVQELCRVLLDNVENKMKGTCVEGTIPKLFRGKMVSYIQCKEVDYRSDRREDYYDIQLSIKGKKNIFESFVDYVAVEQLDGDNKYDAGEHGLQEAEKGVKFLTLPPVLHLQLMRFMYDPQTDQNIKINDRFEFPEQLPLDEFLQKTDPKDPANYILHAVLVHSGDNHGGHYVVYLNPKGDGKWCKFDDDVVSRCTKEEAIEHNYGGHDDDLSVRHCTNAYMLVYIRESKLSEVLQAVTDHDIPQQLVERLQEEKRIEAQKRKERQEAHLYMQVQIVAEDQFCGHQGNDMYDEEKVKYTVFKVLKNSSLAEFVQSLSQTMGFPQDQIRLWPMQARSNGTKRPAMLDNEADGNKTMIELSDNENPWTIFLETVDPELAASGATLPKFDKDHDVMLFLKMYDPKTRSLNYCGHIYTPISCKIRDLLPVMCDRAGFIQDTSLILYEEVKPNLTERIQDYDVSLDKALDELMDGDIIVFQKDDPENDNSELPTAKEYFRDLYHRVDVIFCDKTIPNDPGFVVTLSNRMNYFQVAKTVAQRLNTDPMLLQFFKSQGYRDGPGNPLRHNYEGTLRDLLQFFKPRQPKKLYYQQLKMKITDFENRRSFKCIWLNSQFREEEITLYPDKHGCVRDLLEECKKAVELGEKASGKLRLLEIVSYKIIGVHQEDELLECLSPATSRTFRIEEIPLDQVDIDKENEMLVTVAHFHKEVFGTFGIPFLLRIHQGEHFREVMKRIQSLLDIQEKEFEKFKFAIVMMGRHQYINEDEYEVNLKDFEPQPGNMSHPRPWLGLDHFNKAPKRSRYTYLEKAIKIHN

How the values were obtained:
Assay in all cases: co-IP; GFP-Trap magnetic agarose pull outs on nuclear extracts of K562 cells stably expressing the GFP fusion, 1 h at 4°C; input, non-bound and bound fractions on western blot; also from cells treated with P22077 (72 h, 30 μM) and from cells expressing SCR, TRIM27 or USP7 shRNAs
[1] = molecular target: T1, KDM2B-GFP (wild-type KDM2B, long form) (UniProt Q8NHM5)
T1 sequence: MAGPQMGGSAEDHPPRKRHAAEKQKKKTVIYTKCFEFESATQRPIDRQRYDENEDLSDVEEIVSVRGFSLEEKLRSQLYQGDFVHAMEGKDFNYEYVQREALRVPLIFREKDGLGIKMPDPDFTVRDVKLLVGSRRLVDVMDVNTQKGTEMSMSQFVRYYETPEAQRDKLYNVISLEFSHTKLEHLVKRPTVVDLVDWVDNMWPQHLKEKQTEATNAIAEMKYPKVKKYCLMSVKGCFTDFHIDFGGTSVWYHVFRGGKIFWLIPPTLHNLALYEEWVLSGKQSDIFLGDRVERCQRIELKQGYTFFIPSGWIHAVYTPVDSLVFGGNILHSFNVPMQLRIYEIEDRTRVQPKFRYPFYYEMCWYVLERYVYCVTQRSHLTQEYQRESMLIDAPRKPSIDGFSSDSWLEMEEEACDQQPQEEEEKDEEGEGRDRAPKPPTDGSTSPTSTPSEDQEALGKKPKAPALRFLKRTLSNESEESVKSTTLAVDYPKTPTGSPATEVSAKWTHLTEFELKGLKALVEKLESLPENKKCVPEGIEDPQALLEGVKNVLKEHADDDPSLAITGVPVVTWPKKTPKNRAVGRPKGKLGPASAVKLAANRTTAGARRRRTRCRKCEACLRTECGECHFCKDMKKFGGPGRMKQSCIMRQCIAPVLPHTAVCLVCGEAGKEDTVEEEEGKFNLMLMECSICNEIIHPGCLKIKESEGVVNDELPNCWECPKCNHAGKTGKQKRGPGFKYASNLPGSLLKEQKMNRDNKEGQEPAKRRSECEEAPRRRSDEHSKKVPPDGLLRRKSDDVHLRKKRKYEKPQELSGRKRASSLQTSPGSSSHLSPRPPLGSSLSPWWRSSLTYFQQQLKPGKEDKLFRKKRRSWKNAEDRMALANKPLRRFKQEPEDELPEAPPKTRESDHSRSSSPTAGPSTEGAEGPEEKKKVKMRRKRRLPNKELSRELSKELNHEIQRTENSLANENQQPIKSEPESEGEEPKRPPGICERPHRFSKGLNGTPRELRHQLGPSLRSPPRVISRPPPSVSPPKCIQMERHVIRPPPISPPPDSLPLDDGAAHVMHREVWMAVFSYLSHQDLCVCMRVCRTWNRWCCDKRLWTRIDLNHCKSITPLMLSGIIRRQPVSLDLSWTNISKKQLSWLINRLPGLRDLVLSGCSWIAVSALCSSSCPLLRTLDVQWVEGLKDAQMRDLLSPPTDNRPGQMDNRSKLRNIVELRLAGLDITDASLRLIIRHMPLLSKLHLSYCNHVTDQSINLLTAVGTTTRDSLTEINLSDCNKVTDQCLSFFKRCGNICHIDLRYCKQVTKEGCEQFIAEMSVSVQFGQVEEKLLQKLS

[2] = molecular target: PCGF1-GFP (UniProt Q9BSM1)
[3] = molecular target: GFP-RING1B (UniProt Q99496)

Substance	binding [1]	binding [2]	binding [3]
PCGF1, endogenous (from UniProt Q9BSM1 1-259)	binds	–	–
RING1A, endogenous (from UniProt Q06587 1-406)	binds	–	–
RING1B, endogenous (from UniProt Q99496 1-336)	binds	–	–
USP7 (ubiquitin-specific peptidase 7), endogenous (from UniProt Q93009 1-1102) (enzyme)	–	binds	binds
